Test results published in patent US20250163183A1.
Residue numbers refer to the chain shown, from its start. These are yes or no findings as the source states them, for the method shown. Some results given as binding are weak or reduced against the parent protein; the word gives no strength.

Protein sequences, listed by entry. Tags and fused reporters are not part of them. Lines headed by an entry give the natural chain unless they say otherwise; changes in a name come on top.
UniProt P04070: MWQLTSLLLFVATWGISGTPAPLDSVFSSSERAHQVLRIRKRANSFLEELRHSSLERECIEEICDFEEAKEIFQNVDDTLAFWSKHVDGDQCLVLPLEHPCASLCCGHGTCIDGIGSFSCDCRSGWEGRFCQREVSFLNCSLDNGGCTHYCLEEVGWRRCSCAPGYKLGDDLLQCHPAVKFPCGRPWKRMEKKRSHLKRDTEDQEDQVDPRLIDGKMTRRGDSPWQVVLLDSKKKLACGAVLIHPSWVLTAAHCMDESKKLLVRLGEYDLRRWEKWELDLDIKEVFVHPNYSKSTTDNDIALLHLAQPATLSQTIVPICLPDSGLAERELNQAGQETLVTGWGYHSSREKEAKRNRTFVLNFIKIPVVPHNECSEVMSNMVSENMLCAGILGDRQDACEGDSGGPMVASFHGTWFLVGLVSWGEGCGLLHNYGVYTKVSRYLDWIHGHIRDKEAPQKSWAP

B1: SR16983-R2-P2-F02 (VHH)
VHH: QLQLVESGGGLVQAGGSLRLSCAASGTTFSFVYMGWYRQAPGNQRDLVARISSDGSTNYADSVKGRFTISRDNAKNTVYLQMNSLRPEDTARYYCFYNGHLNKWGQGTQVTVSS
B2: SR16983-R2P1F04 (VHH)
VHH: B1 VHH with G26R, V32N, D54G, S56I, R71G, R86K
B3: SR16983-R3-P5-A06 (VHH)
VHH: QLQLVESGGGLVQAGGSLRLSCVASGTTFTIEDIGWYRLAPGKQRELVAIISGGNTNYADSVKGRFTISRDNAKNTVYLQMNSLKPEDTAVYYCNGRTKATVKWGRGTQVTVSS
B4: SR16983-R2-P5-A12 (VHH)
VHH: QVQLVESGGGLVEAGGSLRLSCAASGRTFSSGALGWFRQAPGKEREFVATIRWSDERKQYSEFVKGRFTISRDSAKNTVYLQMNNLQPEDTAVYYCRSTVGNVLYWGQGTQVTVSS
B5: SR16983-R3-P3-A08 (VHH)
VHH: EVQLVESGGGLVQAGGSLRLSCAASGRTFVGTYVMGWFRQAPGKAREFVAASSRSTGNTVYLDSVKGRFTVSRDDAKNTLYLQMNSLKPEDTAVYYCAARASINYNAANWPYWGQGTQVTVSS
B6: SR16983-R2-P2-C04 (VHH)
VHH: QLQLVESGGGLVQAGGSLRLSCAASRTTFRINGVDWYRQVPGKQRELVATASSDGPTNYAESVKGRFTISRDNAKNTVYLQMNSLKPEDTAVYYCRIVLPSRIIWGQGTQVTVSS
B7: SR16983-R3-P4-A08 (VHH)
VHH: QLQLVESGGGLVQAGDSLRLSCVFSGLTASTYAMAWFRQAPGKEREFVSVIDWKGDTTYANSVKGRFTISRDNGNKTVYLQMNSLQPEDTALYYCAARGSPGYVARLYAHWGRGTQVTVSS
B8: SR16983-R2-P2-G09 (VHH)
VHH: QLQLVESGGGLVQAGGSLRLSCVASGTTFSIEETYWYRLAPGKQRELVAVISGGGNTNYADSVKGRFTISRDNAKNTVYLQMNSLKPEDTAVYYCSARTIATVKWGQGIQVTVSS
B9: SR16983-R4-P1-C05 (VHH)
VHH: QLQLVESGGGLVQAGGSLRLSCAASGRTFGSYVMGWFRQAPGKERAFVGAASRSTGTTVYLDSVKGRFTISRDDAKNTLYLQMNSLKPEDTAVYYCAARASINYNYANWPYWGQGTQVTVSS
B10: SR16983-R3-P5-C09 (VHH)
VHH: QLQLVESGGGLVQPGGSLRLSCAASGFTFSTKWMYWVRQGPGKGLERVAAIDASGGSTYYADSVKGRFTISRDNSKNTLYLQMNSLESADTAVYYCARSEGGQFRGRGTQVTVSS
B11: SR16983-R2-P3-B05 (VHH)
VHH: B9 VHH with A14P, F29V, A46E, V48L, G49A, A51N, T57N, L61A, A98T
B12: SR16983-R3-P3-E04 (VHH)
VHH: B9 VHH with L2V, A46E, G49A, T57N, L61P
B13: SR16983-R2-P2-G01 (VHH)
VHH: EVQLVESGGGLVQAGESLRLSCVVSGSRFRISGMGWYRQAPEKQRELVAAITRGGSTNYSDSVKGRFTISSDNAKNTVYLQMNSLKPDDTDVYYCAATVLDIPTMSTDDYWGQGTQVTVSS
B14: SR16983-R3-P4-E06 (VHH)
VHH: QLQLVESGGGLVQAGGSLRLSCAASGRTVGSYAVAWFRQAPGKERELLAASSRSTGNTVYADSVKGRFTIARDDAKNTLYLQMNSLKPEDTAVYYCAARASINYNYANWPYWGQGTQVTVSS
B15: SR16983-R2-P4-E06 (VHH)
VHH: QLQLVESGGDLVQAGGSLRLSCAASGFTLDDYAIGWFRQAPGKEREGVSCIASSDGSTYYADSVKGRFTISTDNAKNTVYLQMNSLKPEDTAVYYCARGGLLLPKPELFDSWGQGTQVTVSS
B16: SR16983-R3-P2-F07 (VHH)
VHH: QLQLVESGGGLVQAGGSLRLSCAASGTTFDMNSMGWYRQAPGFKRDLVATISIGGDTNYADSVKGRFTISRDNAKNTVYMQMNSLKPEDTAVYYCNAERIWPNRRSFWGQGTQVTVSS
B17: SR16983-R2-P4-G02 (VHH)
VHH: B1 VHH with R71G
B18: SR16983-R2-P4-D07 (VHH)
VHH: B9 VHH with L2V, F29I, A46E, G49V, A51F, T57H, T58I, V59S, L61A
B19: SR16983-R2-P2-F07 (VHH)
VHH: B1 VHH with T27S, V32N, D54G, S56I, R71G, N76D, R86K, H100Y
B20: SR16983-R3P2H10 (VHH)
VHH: B10 VHH with S54G, K76E, L79V, Q103L, S115A
B21: SR16983-R3-P4-E04 (VHH)
VHH: B14 VHH with L2V, A35G, L47F, A71S, A98T
B22: SR16983-R3-P5-F04 (VHH)
VHH: B15 VHH with D10G, D110E, S111Y
B23: SR16983-R2P1C08 (VHH)
VHH: QVQLVESGGGLVQPGGSLRLSCAASGRTFSNYAMGWFRQAPGKERRFVAGISRDDTSTSYADSVKGRFTILRDRSKNTVDLQMNSLKPEDTAIYYCAAARGIYGEISRYTGDYDSWGQGTQVTVSS
B24: SR16983-R3P2E7 (VHH)
VHH: B3 VHH with Y78F, G96A, V102A, T108I
B25: SR16983-R3P2A9 (VHH)
VHH: B14 VHH with L2V, A33V, V34M, A35G, A71S, L79V, Y80F, S122P
B26: SR16983-R2P1C11 (VHH)
VHH: QLQLVESGGGLVQSGGSLRLSCTASGSTVRVTAGGWYRQAPGNERELVADIDNGGRPTYADSVKGRFTISRDNAKNAVDLQMNNLKPEDTAVYYCFVIAIPDSAPRPRAYWGQGTQVTVSS
B27: LP4 (SR16983-R3-P2-A06) (VHH, not shown: small tags and cut ends)
VHH: QLQLVESGGGLVQAGGSLRLSCAASGSTFNFRIMGWYRQVPGKQRELVAVINSGGSADYTEDVKGRFTISRDDAKSTMYLQMNSLKPEDTAVYYCHAKKVEPTLFTTTYWGQGTQVTVSS
B28: LP9 (SR16983-R3-P3-B05) (VHH, not shown: small tags and cut ends)
VHH: B5 VHH with T32S, A45E, P89T, A99T, N109T
B29: LP20 (SR16983-R4-P1-B07) (VHH, not shown: small tags and cut ends)
VHH: B26 VHH with S14A, A40T, R56S, P57T, N84S, Y94R, Q116E
B30: LP11 (SR16983-R3-P3-F03) (VHH, not shown: small tags and cut ends)
VHH: QLQLVESGGGLAQAGGSLRLSCAASGRTFVGSYVMGWFRQAPGKEREFVAASSRSTGNTVYLDSVKGRFTISRDDAKNTLFLQMNRLKPEDTAVYYCATRASVNYNYAAWPYWGQGTQVTVSS

Target: human activated protein C (APC) (human) (UniProt P04070)
Assay: ELISA screen, APC-coated wells, OD450, n=2

binding, binds:
B1
B2
B3
B4
B5
B6
B7
B8
B9
B10
B11
B12
B13
B14
B15
B16
B17
B18
B19
B20
B21
B22
B23
B24
B25
B26

Target: human activated protein C (APC) (human) (UniProt P04070)
Assay: ELISA

binding, binds:
B1
B2
B3
B4
B5
B6
B7
B8
B9
B10
B11
B12
B13
B14
B15
B16
B17
B18
B19
B20
B27
B28
B29
B30
B21
B22
B23
B24
B25
B26

Target: human activated protein C (APC) (human) (UniProt P04070)
Assay: ELISA, APC coated at 10 µg/mL, nanobody 2 µg/mL, HRP-anti-V5, n=3

binding, binds:
B27
B28
B29
B30

Target: human activated protein C (APC) (human) (UniProt P04070)
Assay: ELISA, coated APC

binding, binds:
B27
B28
B29
B30

Target: human activated protein C (APC) (human) (UniProt P04070)
Assay: ELISA screen, APC-coated wells, OD450, n=2 [Continued]

binding, binds:
B27
B28
B29
B30
